Measurements taken from paper PMC11793186.
No constants are given. Whether binding was seen depends on the method and setting. In cells and extracts the contact can be indirect. Some entries that bind do so weakly or less than the wild type.

Amino acid sequences for entries named in this document (tags omitted).
UniProt P63168: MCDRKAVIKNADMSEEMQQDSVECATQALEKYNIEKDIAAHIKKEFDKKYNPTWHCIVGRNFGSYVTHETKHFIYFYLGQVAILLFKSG
UniProt Q0GNC1: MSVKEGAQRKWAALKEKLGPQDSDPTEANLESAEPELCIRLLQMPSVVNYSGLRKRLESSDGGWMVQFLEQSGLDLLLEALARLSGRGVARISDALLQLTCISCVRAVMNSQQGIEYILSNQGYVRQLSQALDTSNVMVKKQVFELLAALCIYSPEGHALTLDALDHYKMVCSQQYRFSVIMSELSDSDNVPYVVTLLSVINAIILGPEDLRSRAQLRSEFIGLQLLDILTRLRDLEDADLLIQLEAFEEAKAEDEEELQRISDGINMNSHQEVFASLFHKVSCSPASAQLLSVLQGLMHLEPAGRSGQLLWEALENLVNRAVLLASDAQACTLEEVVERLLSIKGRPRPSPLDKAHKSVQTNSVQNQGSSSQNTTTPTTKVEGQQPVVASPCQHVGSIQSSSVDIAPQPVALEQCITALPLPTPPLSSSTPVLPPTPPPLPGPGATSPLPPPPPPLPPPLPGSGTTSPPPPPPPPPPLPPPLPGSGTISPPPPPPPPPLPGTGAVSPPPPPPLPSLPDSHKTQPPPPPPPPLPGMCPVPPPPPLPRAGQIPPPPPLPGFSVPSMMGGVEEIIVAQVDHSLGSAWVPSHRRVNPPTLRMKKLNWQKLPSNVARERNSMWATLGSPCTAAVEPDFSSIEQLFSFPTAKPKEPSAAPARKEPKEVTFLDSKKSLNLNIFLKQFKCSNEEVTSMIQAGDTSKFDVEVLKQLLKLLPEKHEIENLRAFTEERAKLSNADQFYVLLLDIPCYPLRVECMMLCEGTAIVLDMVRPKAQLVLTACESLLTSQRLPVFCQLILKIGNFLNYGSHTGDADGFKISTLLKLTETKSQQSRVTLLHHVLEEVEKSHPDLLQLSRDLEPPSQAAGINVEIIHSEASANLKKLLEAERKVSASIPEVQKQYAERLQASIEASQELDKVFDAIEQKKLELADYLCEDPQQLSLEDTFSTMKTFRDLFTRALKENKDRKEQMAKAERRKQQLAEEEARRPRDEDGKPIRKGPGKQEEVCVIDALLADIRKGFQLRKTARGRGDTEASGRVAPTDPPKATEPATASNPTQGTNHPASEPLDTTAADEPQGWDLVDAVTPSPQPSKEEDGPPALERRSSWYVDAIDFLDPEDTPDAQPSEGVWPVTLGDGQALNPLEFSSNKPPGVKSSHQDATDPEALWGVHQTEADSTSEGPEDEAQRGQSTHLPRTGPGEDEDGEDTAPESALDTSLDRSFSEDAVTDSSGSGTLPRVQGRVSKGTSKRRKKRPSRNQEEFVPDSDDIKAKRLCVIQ

Assays:
[1] = target: dynein light chain 1 (Dynll1) (mouse (endogenous in glomeruli)) (UniProt P63168); experiment: co-IP; glomerular lysates of wt/wt mice; precipitated with an anti-Dynll1 antibody, INF2 and PI31 detected by blot; quantified as fraction of the protein in the Dynll1 pulldown relative to the total in lysates
[2] = target: dynein light chain 1 (Dynll1) (mouse (endogenous in glomeruli)) (UniProt P63168); experiment: as above; remark: listed apart in the source
[3] = target: dynein light chain 1 (Dynll1) (mouse (endogenous in glomeruli)) (UniProt P63168); experiment: co-IP; glomerular lysates of INF2 R218Q KI mice (wt/ki and ki/ki), without or with puromycin aminonucleoside (PA) treatment of the mice; precipitated with an anti-Dynll1 antibody, INF2 and PI31 detected by blot; quantified as fraction of the protein in the Dynll1 pulldown relative to the total in lysates

| binding [1] | binding [2] | binding [3] | Molecule |
| --- | --- | --- | --- |
| binds |  |  | inverted formin 2 (INF2), wild type (from UniProt Q0GNC1 1-1273) |
|  | binds weakly | binds | proteasomal inhibitor of 31kD (PI31) (protein, UniProt Q8BHL8 1-271) MAGLEVLFASAAPSMSCPQDALVCFLHWEVVTNGYYALGTGDQPGPSDKKSELLPAKWNSNKELYALRYESKDGARKLLLKAVSVENGMIINVLELGTQQVADLTLNLDDYIDAEDLSDFHRTYKNSEELRSQIRSGIITPIHEQWEKARANSPPREFPPATAREVDPLQISSHRPHTSRQPAWRDPLSPFAVGGDDLDPFGCQRGGMIVDPLRSGFPRVLIDPSSGLPNRLPPGAVPPGARFDPFGPIGTSPSGPNPDHLPPPGYDDMYL |
